PubChem BioAssay AID1259254, NCATS, 2017
The deposit covers about 59,000 reagents; below is a random part of them. About 1,550 of all reagents (2.6%) count as active. 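G2 share is only a proxy for re-replication; each gene was hit by three separate siRNAs, and active genes were retested.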 Raw values are not corrected between plates. Reagents against one gene are numbered here. The record does not give: the amount of reagent.

- Screen: 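Finding genes that stop cells copying their DNA twice in one cycle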 (primary screen)
- Cells: human HCT116 colorectal cancer cells
- Knock-down reagent: single siRNA against human genes
- Duration: 3 days
- Read-out: 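Nuclei stained with Hoechst and imaged; cell-cycle phase assigned by DNA content; G2 share scaled per plate, non-targeting siRNA 0%, GMNN siRNA 100%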
- Reading the numbers: G2 robust z-score and G2 cells, % of GMNN control: higher = more G2 cells, more excess DNA replication; raw share of cells in G2: higher = larger share of cells with G2 DNA content
- Active means: 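An siRNA counts as active if its G2 robust z-score lies at least 5 MADs above the screen median; here such calls match roughly 38% of GMNN control or more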

The first 6 records as a preview:
G2 robust z-score	G2 cells, % of GMNN control	raw share of cells in G2 (%)	Call	target gene	siRNA no.
0.274	4.89	7.41	inactive	MAN1A1 (mannosidase alpha class 1A member 1)	1
-0.589	-1.17	2.81	inactive	MAN1A1 (mannosidase alpha class 1A member 1)	2
-1.45	-7.25	2.56	inactive	MAN1A1 (mannosidase alpha class 1A member 1)	3
0.211	4.45	7.18	inactive	SLC22A5	1
3.17	25.3	13.2	inactive	SLC22A5	2
7.08	52.8	21.4	active	SLC22A5	3

The listing, from the first entry:
G2 robust z-score	G2 cells, % of GMNN control	raw share of cells in G2 (%)	Call	target gene	siRNA no.
0.274	4.89	7.41	inactive	MAN1A1 (mannosidase alpha class 1A member 1)	1
-0.589	-1.17	2.81	inactive	MAN1A1 (mannosidase alpha class 1A member 1)	2
-1.45	-7.25	2.56	inactive	MAN1A1 (mannosidase alpha class 1A member 1)	3
0.211	4.45	7.18	inactive	SLC22A5	1
3.17	25.3	13.2	inactive	SLC22A5	2
7.08	52.8	21.4	active	SLC22A5	3
0.545	6.8	6.45	inactive	SS18L2 (SS18 like 2)	1
-0.251	1.2	5	inactive	SS18L2 (SS18 like 2)	2
-0.734	-2.2	2.56	inactive	SS18L2 (SS18 like 2)	3
0.268	4.85	5.44	inactive	KRT86 (keratin 86)	1
0.631	7.41	5.91	inactive	KRT86 (keratin 86)	2
-0.673	-1.77	2.25	inactive	KRT86 (keratin 86)	3
0.722	8.05	5.85	inactive	KRT86 (keratin 86)	4
-1.33	-6.39	2.89	inactive	KRT86 (keratin 86)	5
-1.21	-5.53	3.28	inactive	KRT86 (keratin 86)	6
2.64	21.5	13.4	inactive	MLLT11 (MLLT11 transcription factor 7 cofactor)	1
1.82	15.7	10.6	inactive	MLLT11 (MLLT11 transcription factor 7 cofactor)	2
-0.791	-2.6	2.2	inactive	MLLT11 (MLLT11 transcription factor 7 cofactor)	3
2.01	17.1	10.4	inactive	ZNF706 (zinc finger protein 706)	1
0.156	4.07	6.09	inactive	ZNF706 (zinc finger protein 706)	2
1.92	16.5	8.45	inactive	ZNF706 (zinc finger protein 706)	3
-1.08	-4.61	1.91	inactive	CFAP53 (cilia and flagella associated protein 53)	1
-1.06	-4.5	1.59	inactive	CFAP53 (cilia and flagella associated protein 53)	2
0.358	5.49	4.94	inactive	CFAP53 (cilia and flagella associated protein 53)	3
0.973	9.82	8.91	inactive	RECQL5 (RecQ like helicase 5)	1
-0.664	-1.7	4.06	inactive	RECQL5 (RecQ like helicase 5)	2
0.586	7.09	5.62	inactive	RECQL5 (RecQ like helicase 5)	3
0.00746	3.02	4.71	inactive	FTH1 (ferritin heavy chain 1)	1
-0.666	-1.72	4.5	inactive	FTH1 (ferritin heavy chain 1)	2
12.3	89.5	36.9	active	FTH1 (ferritin heavy chain 1)	3
3.98	31	15.3	inactive	C8G (complement C8 gamma chain)	1
-0.903	-3.39	3.87	inactive	C8G (complement C8 gamma chain)	2
-0.923	-3.52	2.68	inactive	C8G (complement C8 gamma chain)	3
-0.831	-2.88	4.23	inactive	SLC4A9	1
3.29	26.1	13.7	inactive	SLC4A9	2
0.0981	3.66	6.14	inactive	SLC4A9	3
0.625	7.37	6.4	inactive	SLC1A1	1
-1.11	-4.85	4.05	inactive	SLC1A1	2
-0.906	-3.41	3.38	inactive	SLC1A1	3
6.68	50	21.7	active	ZFP36L1 (ZFP36 like 1 zinc finger CCCH-type)	1
0.789	8.52	8.11	inactive	ZFP36L1 (ZFP36 like 1 zinc finger CCCH-type)	2
-1.29	-6.12	1.71	inactive	ZFP36L1 (ZFP36 like 1 zinc finger CCCH-type)	3
3.17	25.2	12.5	inactive	RSU1 (Ras suppressor protein 1)	1
-0.0221	2.81	5.75	inactive	RSU1 (Ras suppressor protein 1)	2
2.92	23.5	13.1	inactive	RSU1 (Ras suppressor protein 1)	3
0.365	5.53	4.99	inactive	SYT12 (synaptotagmin 12)	1
4.69	36	15.7	inactive	SYT12 (synaptotagmin 12)	2
0.04	3.25	4.66	inactive	SYT12 (synaptotagmin 12)	3
